Data taken from PMC4183798.

How the values were obtained:
[1] = biological target: T1, Fc-tagged full-length αDAG co-transfected with LARGE (rat) (UniProt F1M8K0); assay: pull-down; preformed complex of Fc-tagged αDAG with Nrxn1α(+SS#4) (Fig. 6C, lane 3, lower panels); how the complex was formed is not stated
T1 sequence (chain, glycans added by LARGE (mucin region)): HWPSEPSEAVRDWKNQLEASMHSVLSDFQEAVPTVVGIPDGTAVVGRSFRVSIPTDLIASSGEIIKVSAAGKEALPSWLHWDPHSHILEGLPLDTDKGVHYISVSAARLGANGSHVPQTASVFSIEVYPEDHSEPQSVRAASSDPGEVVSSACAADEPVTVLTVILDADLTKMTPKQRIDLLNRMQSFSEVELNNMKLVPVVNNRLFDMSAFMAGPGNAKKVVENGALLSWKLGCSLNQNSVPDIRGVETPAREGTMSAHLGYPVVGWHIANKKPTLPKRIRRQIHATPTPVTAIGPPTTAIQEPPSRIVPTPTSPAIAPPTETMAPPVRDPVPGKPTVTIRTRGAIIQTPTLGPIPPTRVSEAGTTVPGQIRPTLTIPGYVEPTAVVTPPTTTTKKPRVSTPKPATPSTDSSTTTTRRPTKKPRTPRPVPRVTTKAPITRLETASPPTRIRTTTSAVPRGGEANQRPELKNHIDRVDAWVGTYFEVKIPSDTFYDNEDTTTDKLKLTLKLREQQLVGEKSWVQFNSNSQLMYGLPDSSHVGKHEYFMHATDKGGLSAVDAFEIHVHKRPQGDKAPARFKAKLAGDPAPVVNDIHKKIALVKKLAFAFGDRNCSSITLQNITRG

[2] = biological target: T2, Fc-αDAG-T315A/T317A (rat) (UniProt F1M8K0); assay: pull-down; Fc-tagged αDAG variants secreted from HEK293 cells (with or without LARGE) on protein A beads; mouse brain lysate; immunoblot for α-Nrxn; only the target purified
T2 sequence (chain, glycans added by LARGE): T1 sequence (chain, glycans added by LARGE (mucin region)) with T288A, T290A

[3] = biological target: T1, Fc-tagged full-length αDAG co-transfected with LARGE (rat); assay: as above

Row | binding [1] | binding [2] | binding [3] | Substance
1 | binds | – | – | Soluble, non-tagged extracellular domains of Nrxn1α (+SS#4) (rat) (domain or fragment)
2 | – | binds | binds | α-Nrxn from mouse brain (receptor)

Changes are numbered by the printed parent chain. No constants are given. Whether binding was seen depends on the method and setting. Binding seen in cells or lysates may run through a third protein. A result given as binding can be weak or reduced; the word gives no strength. Where a sequence is shown, tags or fusion partners need not be part of it.
